Structures are written as SMILES. Some of the results follow.

The subject of the test is SARS-CoV-2 3_SL2 RNA. In words: NMR binding call after quantification (hit when 2 of 3 NMR criteria are met) (binary (1 = binding, 0 = not binding)); higher = binding. To be noted: RNA concentration 10 µM; fragment concentration 200 µM; 293 K.
Turning to `CCS(=O)(=O)NCc1ccc2c(c1)OCO2`, the NMR binding call stood at 0.

Consider `Nc1ccc(S(=O)(=O)Nc2ccccn2)cc1`, for which the NMR binding call worked out at 0.

Turning to `Cc1cc(C(=O)NC(C)C)on1`, the NMR binding call amounted to 0.

Compound `Cc1ccsc1CNC(C)(C)CO` yielded an NMR binding call of 0.

In the case of `Cc1nn(Cc2c(C)noc2C)c(=O)s1`, the NMR binding call came to 0.

The compound `CC(C)NC(=O)c1cc[nH]n1` returned an NMR binding call of 0.

Compound `CC(C)NC(=O)N(C)Cc1cnn(C)c1` had an NMR binding call of 0.

`CC(C)N1CCCC(CO)C1` (stereo not given) had an NMR binding call of 0.

Compound `CC1COCCN1CCN` (stereo not given) had an NMR binding call of 0.

`CC(C)(O)CNC1CCOCC1` came in with an NMR binding call of 0.

Compound `CC(=O)NCC1(c2ccccc2)CCOCC1` displayed an NMR binding call of 0.

In the case of `CNC(=O)c1ccc(S(N)(=O)=O)cc1`, the NMR binding call turned out to be 0.

In the case of `CN(C)Cc1nc(C2(N)CCCC2)no1`, the NMR binding call stood at 0.

`CC(O)CNCc1c(Cl)cccc1Cl` (stereo not given) yielded an NMR binding call of 0.

Turning to `O=C(Nc1ccc(O)cc1)N1CCOCC1`, the NMR binding call was determined as 0.

Compound `CC1CCCN(C(=O)CO)C1` (stereo not given) registered an NMR binding call of 0.

As for `CNc1ncc(C(F)(F)F)cc1Cl`, the NMR binding call stood at 0.

On to `O=C(NCc1ccco1)NC1CCCCC1`, for which the NMR binding call is 0.

Take `CC(=O)Nc1ccc(CC(N)=O)cc1`: the NMR binding call was 0.

Regarding `NC(=O)N1CCN(C(=O)c2ccco2)CC1`, the NMR binding call is 0.

`Cc1cnc(N2CCNCC2)s1.Cl.Cl` returned an NMR binding call of 0.

In turn, `O=C(c1c(F)cccc1F)N1CCCC1` registered an NMR binding call of 0.

Take `CC(Oc1ccc(-c2ccccc2)cc1)C(=O)O` (stereo not given): the NMR binding call is 0.

Consider `Cl.O=C(O)CCN1CCCCC1`, for which the NMR binding call was 0.

Consider `CC(C)n1cc(C(=O)O)nn1`, for which the NMR binding call was 0.

With `CN1CCN(c2ncccc2F)CC1=O`, the NMR binding call worked out at 0.

Regarding `COc1cc(C(=O)O)cc(OC)c1OC`, the NMR binding call was 0.

On to `Cc1csc(CNC(=O)C2CCC2)n1`, for which the NMR binding call is 0.

With `CNC(=O)CN1CCNCC1`, the NMR binding call came to 0.

Take `Cc1cccc(NC(=O)CN2CCOCC2)c1C`: the NMR binding call turned out to be 0.

`O=C(Nc1ccc(F)cc1)Nc1ccc(F)cc1` registered an NMR binding call of 0.

In turn, `COc1ccc(C(=O)Nc2ccccc2F)cc1` had an NMR binding call of 0.

Compound `O=C(c1c(F)cccc1F)N1CCCCCC1` displayed an NMR binding call of 0.

The compound `Cc1ccc(NC(=O)C2CCCO2)nc1` (stereo not given) displayed an NMR binding call of 0.

`CC(=O)Nc1ccc(F)c(C(=O)O)c1` yielded an NMR binding call of 0.

Turning to `Nc1ccccc1OCc1ccccc1`, the NMR binding call stood at 0.

In turn, `O=C(c1ccco1)N1CCN(C(=O)C2CC2)CC1` had an NMR binding call of 0.

`COc1ccc(C(=O)C2CCNCC2)cc1` returned an NMR binding call of 0.

The compound `Cc1nnc(CN2CCC=C(F)C2)s1` displayed an NMR binding call of 0.

In the case of `NC(=O)c1ccc(OCc2ccccc2)cc1`, the NMR binding call was 0.

Source of the values: the supplement of paper PMC8426693.
